Test results taken from patent publication US20190191675.

The chains behind the UniProt entries cited, without tags or fusion partners. Residues count along the entry.
UniProt O89090, 2-784: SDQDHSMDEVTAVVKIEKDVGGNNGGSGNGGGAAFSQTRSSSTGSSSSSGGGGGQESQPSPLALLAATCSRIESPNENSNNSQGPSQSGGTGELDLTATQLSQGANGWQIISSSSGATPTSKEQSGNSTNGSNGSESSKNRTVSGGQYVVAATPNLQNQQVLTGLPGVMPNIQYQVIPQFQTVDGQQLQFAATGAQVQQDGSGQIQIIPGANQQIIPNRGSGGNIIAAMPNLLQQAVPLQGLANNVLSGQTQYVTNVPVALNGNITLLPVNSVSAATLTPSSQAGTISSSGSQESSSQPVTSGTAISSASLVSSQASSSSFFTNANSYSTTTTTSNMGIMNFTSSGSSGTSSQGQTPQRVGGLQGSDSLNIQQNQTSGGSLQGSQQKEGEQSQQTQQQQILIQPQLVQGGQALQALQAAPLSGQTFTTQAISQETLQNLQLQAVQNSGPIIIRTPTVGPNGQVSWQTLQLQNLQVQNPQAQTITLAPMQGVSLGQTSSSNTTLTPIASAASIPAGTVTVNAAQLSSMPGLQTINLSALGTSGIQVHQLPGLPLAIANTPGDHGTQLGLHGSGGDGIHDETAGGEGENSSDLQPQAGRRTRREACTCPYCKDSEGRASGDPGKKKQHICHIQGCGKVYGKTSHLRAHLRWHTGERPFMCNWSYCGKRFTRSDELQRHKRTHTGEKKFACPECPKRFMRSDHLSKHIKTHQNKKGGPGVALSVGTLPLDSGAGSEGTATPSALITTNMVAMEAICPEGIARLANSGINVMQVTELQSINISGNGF

Molecular target: SP1 (specificity protein 1) (Mus musculus) (UniProt O89090)
Experiment: EMSA
Details: protein in an extract, protein details: endogenous, MEF nuclear extract

Row | Sequence | binding result (variant of mouse IL-31 promoter SP1 probe WT) | binding result (20 mM HEPES pH 7.9, 50 mM KCl, 3 mM MgCl2, poly(dI-dC), room temperature, anti-SP1 supershift, label: 32P)
1 | TGCCATGGGCGAAGTTTTGATCTGCTTC (double strand) [mouse IL-31 promoter SP1 probe Mut] | no binding | 
2 | TGCCATGGGCGGGCCTTTGATCTGCTTC (double strand) [mouse IL-31 promoter SP1 probe WT] |  | binds

Where cells or extracts were used, other partners may take part. A negative result means that nothing was seen under these conditions.
